From publication PMC7862700
Some of the results follow. Construct or isoform of the protein are uncertain.

What follows are sequences tested against T1, ELF2 (UniProt Q15723) (assay: DAPPL (digital affinity profiling via proximity ligation, sequencing)). Settings: 10 mM Tris-HCl pH 7.5, 50 mM NaCl, 1 mM DTT, 4% glycerol, room temperature, 30 min; GST-TFs on glutathione beads, 16-mer random dsDNA library, 0.1% …; high values mean tight binding; double strand, one strand shown; scale: fold enrichment (6-mer frequency, TF over GST control).
T1 sequence: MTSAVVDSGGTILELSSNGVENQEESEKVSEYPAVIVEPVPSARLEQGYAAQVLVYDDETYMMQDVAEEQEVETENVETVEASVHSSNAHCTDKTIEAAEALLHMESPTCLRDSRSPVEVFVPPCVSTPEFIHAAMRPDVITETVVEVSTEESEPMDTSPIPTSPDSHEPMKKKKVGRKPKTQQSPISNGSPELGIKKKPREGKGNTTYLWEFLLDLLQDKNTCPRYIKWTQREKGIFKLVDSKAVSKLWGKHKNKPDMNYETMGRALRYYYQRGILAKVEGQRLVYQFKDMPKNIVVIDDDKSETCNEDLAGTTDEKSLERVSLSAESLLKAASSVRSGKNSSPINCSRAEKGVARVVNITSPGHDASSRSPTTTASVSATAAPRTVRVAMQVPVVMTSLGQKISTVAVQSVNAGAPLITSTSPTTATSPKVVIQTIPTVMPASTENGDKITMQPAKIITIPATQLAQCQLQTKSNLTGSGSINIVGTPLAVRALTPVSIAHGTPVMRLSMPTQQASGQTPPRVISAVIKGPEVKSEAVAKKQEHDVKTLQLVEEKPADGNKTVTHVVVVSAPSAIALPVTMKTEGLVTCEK
CCAATC gave a binding signal of 1.11. AGGAAA gave a binding signal of 1.84. In the case of CTCGAT, the binding signal is reported as 1.27. Sequence CTATTC has a binding signal of 1.32. AAAGAC gave a binding signal of 1.03. Sequence GCTCTG has a binding signal of 1.1. In the case of TTACGA, the binding signal is reported as 1.12. TTGATA gave a binding signal of 1.19. Sequence GTGCTT has a binding signal of 1.28. With TAATTT the binding signal was 1.49. TACTAC was tested, and the binding signal was 1.35. In the case of ATGATC, the binding signal is reported as 1.15. CTAAAC showed a binding signal of 1.15. With GCCCTT the binding signal was 1.16. In the case of CTCGTG, the binding signal is reported as 0.992. With TCGAAT the binding signal was 1.01. ATGGAA gave a binding signal of 1.12. For CCTACT, the binding signal was 1.69. With CTCCTA the binding signal was 1.26. Work on ATCTCC yielded a binding signal of 1.46. In the case of GAATTT, the binding signal is reported as 1.27. In the case of GAACCT, the binding signal is reported as 1.15. TCGCTT was tested, and the binding signal was 1.29. CTGATC gave a binding signal of 1.28. AAGTAC was tested, and the binding signal was 1.69. Sequence TGTTAT has a binding signal of 1.38. Work on TCTTCT yielded a binding signal of 1.21. TAAATA was tested, and the binding signal was 1.25. Sequence AACATA has a binding signal of 1.23. Work on ATACCT yielded a binding signal of 1.04. Work on CTGGAC yielded a binding signal of 1.07. ATTTAT gave a binding signal of 1.42. Work on TACTGA yielded a binding signal of 1.07. For TTGATT, the binding signal was 1.24. In the case of TCTAAA, the binding signal is reported as 1.14. AGAATT showed a binding signal of 1.15. Work on AGCTTC yielded a binding signal of 2.07. ATTTCT gave a binding signal of 1.46. TGGAAA was tested, and the binding signal was 1.06. With GCGTTC the binding signal was 1.17.
